Results taken from the supplement of paper PMC10849652.
This is one part of the list.

By UniProt entry, the sequences of proteins in these tests, tags left out. Where a name states a change or a piece, a line headed by the entry shows the natural chain unless it says otherwise.
UniProt P31350, whole entry, looked up: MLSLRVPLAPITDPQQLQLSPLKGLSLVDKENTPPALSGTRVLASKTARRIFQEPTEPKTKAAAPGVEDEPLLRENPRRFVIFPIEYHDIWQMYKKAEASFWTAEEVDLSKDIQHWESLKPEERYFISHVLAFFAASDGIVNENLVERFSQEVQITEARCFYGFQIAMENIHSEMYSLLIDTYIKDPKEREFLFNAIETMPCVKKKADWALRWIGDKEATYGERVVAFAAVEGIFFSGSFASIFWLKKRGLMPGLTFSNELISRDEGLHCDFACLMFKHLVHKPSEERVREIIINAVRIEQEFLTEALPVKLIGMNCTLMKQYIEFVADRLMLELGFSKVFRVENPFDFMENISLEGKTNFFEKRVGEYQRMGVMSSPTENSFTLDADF
UniProt P10301: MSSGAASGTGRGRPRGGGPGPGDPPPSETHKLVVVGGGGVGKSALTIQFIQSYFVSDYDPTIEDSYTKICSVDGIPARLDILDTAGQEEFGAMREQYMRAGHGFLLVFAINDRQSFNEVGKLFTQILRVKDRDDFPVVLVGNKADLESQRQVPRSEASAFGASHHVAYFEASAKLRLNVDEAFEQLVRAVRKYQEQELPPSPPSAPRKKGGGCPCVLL
UniProt P05386, whole entry, looked up: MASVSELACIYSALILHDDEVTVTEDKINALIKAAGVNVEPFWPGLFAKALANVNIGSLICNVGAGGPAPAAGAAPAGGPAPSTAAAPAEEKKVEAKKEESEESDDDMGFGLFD
UniProt Q8N5L8: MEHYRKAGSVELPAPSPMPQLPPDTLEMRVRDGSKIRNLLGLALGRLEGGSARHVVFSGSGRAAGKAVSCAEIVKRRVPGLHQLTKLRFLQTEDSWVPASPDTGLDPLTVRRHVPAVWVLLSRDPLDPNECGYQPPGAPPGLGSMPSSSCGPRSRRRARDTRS
UniProt P49247: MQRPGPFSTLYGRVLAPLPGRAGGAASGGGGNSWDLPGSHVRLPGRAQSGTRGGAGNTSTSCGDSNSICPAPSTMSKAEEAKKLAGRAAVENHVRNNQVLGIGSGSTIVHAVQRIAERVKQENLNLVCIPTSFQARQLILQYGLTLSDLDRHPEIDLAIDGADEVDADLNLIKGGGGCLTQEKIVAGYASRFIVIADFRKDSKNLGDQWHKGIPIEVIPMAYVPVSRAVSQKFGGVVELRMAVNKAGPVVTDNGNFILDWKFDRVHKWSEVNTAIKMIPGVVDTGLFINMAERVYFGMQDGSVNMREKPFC
UniProt Q8IZ73: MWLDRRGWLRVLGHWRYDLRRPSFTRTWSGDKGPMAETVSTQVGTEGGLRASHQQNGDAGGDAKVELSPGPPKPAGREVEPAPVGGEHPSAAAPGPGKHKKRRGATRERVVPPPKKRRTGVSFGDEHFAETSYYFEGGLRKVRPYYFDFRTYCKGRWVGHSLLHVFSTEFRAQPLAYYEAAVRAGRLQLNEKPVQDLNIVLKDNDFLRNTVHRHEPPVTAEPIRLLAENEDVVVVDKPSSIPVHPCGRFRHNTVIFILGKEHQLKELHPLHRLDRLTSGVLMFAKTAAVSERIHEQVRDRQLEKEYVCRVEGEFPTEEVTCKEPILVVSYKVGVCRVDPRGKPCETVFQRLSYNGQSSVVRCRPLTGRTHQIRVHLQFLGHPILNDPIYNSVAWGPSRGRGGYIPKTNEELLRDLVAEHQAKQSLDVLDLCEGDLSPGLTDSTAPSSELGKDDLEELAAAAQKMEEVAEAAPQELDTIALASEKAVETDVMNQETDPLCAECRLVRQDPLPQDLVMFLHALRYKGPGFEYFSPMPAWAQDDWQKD
UniProt O75116: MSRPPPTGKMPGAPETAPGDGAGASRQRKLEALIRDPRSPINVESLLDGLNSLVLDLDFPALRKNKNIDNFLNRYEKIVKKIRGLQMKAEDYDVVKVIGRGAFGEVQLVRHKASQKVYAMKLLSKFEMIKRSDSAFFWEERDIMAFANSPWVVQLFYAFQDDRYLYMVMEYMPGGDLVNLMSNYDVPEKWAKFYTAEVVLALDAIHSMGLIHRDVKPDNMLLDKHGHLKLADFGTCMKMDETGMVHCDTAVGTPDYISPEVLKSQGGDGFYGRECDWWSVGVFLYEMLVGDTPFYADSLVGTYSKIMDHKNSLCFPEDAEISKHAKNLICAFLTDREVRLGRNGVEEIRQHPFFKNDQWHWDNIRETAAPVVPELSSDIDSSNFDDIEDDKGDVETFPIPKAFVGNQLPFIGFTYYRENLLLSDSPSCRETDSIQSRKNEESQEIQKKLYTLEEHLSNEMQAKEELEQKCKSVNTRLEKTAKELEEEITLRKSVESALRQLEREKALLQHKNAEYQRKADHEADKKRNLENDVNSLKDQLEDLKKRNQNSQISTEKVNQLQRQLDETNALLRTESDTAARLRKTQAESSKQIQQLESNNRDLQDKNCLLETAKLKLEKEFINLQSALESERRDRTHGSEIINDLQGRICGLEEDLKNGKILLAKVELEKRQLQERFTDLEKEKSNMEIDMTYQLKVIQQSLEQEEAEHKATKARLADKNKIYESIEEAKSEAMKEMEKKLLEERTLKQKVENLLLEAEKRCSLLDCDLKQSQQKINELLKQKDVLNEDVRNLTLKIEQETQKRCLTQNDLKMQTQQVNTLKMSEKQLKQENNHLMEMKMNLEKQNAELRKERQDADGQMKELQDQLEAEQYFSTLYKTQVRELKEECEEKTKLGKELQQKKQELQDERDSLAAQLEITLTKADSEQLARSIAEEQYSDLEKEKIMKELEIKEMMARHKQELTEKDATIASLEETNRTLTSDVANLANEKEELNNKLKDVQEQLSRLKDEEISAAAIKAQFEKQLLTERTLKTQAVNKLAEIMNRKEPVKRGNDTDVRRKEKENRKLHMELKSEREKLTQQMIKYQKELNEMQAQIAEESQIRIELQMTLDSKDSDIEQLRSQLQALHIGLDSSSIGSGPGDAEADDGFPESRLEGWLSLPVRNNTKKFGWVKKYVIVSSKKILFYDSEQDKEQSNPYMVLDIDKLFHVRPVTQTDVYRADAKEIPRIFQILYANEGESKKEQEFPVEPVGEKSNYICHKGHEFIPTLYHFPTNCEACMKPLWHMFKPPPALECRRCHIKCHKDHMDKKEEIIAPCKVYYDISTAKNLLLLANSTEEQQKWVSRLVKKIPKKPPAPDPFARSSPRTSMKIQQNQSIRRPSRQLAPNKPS
UniProt Q9H6T3, whole entry, looked up: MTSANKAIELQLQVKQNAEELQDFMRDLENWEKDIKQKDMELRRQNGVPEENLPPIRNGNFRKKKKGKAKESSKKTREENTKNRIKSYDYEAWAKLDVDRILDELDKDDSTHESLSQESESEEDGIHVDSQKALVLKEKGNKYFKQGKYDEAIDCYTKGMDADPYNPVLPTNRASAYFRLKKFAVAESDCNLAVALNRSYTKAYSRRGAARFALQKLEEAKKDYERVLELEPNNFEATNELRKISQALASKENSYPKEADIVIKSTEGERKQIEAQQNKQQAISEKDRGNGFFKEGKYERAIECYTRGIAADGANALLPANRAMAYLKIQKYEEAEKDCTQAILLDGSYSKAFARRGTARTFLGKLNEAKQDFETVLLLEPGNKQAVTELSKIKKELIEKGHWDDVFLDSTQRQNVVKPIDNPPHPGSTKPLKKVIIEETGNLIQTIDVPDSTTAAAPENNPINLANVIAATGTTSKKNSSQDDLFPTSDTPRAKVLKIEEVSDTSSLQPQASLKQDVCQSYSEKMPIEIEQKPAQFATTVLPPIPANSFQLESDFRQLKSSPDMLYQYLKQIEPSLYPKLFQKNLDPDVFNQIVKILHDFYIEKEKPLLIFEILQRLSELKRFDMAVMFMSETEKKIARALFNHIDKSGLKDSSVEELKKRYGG
UniProt P51812, whole entry, looked up: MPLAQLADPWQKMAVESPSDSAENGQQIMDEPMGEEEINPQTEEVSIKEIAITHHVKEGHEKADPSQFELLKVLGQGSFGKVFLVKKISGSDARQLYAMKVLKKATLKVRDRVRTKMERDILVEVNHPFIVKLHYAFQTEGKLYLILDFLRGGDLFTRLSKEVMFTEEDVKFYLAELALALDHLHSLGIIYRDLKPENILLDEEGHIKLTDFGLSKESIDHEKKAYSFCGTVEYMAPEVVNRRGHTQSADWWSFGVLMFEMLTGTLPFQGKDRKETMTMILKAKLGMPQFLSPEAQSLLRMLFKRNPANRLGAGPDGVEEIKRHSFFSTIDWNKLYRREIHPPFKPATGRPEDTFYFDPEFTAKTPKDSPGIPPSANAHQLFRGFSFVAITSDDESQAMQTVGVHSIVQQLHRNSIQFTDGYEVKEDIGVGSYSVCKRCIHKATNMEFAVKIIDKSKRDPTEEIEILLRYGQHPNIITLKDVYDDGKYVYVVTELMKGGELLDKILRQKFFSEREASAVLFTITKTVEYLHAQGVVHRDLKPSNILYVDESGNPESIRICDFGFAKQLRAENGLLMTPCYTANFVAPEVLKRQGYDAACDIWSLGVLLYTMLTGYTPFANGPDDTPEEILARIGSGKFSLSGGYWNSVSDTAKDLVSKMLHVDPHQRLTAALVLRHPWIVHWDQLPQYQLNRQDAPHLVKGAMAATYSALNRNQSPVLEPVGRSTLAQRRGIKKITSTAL
UniProt Q9BWH6: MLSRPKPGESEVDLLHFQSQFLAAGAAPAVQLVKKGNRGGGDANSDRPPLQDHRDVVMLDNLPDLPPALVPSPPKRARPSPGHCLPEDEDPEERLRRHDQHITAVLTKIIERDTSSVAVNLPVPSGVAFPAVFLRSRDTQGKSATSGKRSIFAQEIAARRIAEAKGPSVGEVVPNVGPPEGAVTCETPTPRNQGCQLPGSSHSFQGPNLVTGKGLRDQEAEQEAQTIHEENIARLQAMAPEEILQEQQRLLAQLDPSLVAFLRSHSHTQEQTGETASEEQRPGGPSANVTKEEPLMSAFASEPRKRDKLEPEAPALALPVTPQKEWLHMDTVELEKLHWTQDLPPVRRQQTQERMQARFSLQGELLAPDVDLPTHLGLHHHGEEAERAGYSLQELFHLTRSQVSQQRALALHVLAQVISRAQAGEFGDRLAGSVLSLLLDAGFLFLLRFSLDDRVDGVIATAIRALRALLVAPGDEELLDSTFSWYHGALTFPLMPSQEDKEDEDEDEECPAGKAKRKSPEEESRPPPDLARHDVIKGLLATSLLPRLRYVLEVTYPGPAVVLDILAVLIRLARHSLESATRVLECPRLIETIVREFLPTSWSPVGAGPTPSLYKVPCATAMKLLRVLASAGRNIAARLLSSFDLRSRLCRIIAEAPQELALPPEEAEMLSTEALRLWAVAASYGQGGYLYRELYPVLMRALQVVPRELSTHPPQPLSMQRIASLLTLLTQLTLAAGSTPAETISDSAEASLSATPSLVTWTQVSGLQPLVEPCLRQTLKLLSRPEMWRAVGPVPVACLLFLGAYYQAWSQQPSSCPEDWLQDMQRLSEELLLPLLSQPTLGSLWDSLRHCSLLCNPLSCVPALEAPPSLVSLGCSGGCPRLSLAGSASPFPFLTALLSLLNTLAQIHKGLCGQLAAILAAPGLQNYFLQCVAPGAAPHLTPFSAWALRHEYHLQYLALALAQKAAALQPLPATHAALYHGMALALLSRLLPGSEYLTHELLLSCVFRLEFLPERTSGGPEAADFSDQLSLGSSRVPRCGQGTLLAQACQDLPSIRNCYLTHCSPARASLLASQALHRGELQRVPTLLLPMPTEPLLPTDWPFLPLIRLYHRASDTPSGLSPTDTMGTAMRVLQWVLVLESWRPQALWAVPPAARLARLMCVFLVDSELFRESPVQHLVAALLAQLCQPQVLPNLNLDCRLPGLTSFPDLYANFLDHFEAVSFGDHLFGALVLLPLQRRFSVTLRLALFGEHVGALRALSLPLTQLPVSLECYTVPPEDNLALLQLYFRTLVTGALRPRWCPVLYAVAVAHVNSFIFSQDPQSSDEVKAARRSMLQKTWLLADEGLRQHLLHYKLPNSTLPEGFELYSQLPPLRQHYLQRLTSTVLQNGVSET
UniProt Q9HB90, whole entry, looked up: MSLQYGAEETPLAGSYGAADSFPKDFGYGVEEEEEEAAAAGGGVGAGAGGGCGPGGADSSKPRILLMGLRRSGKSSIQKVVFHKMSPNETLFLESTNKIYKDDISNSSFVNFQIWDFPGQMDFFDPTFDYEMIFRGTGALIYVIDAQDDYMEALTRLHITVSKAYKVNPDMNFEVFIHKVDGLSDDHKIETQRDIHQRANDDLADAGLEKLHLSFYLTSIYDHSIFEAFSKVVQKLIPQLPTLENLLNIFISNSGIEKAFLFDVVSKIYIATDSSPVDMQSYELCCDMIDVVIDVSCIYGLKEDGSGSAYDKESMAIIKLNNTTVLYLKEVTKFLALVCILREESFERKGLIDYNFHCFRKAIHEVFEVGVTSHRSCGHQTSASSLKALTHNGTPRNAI

Tests used:
Assay in all cases: log2 fold change, soluble protein after heating vs DMSO (PISA); higher = thermal stabilisation; K562 cells, 10 uM, 30 min; active = over 0.2 and 3.5 SD of the protein, either way, in both replicates (recomputed)
[1] = compound: NC(=O)Nc1cc(-c2cccc(F)c2)sc1C(=O)N[C@H]1CCCNC1
Outline: (§1)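 Aliquots of K562 cells (2×10^6 cells/mL) treated with 10 μM compound for 30 min were heated for 3 min over 48°C-58°C. After pooling and extraction in PBS with 0.5% NP-40 at 4°C, soluble protein from a 21,000xg, 90 min spin was quantified by TMTpro 16plex LC-MS/MS with channel sums equalised. Thermal stability is expressed against control samples, from duplicates, as a log2 fold change.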

[2] = compound: NC(=O)c1cnc(N[C@@H]2CCCC[C@@H]2N)nc1Nc1cccc(-n2nccn2)c1
Outline: as §1

[3] = compound: NC1(c2ccc(-c3nc4ccn5c(=O)[nH]nc5c4cc3-c3ccccc3)cc2)CCC1
Outline: as §1

[4] = compound: NCC(=O)Nc1ccc(-n2nc(C(F)(F)F)cc2-c2ccc3c(ccc4ccccc43)c2)cc1
Outline: as §1

entinostat = compound: Nc1ccccc1NC(=O)c1ccc(CNC(=O)OCc2cccnc2)cc1 [entinostat]
Outline: as §1

vorinostat = compound: O=C(CCCCCCC(=O)Nc1ccccc1)NO [vorinostat]
Outline: as §1

citarinostat = compound: O=C(CCCCCCNC(=O)c1cnc(N(c2ccccc2)c2ccccc2Cl)nc1)NO [citarinostat]
Outline: as §1

silmitasertib = compound: O=C(O)c1ccc2c(c1)nc(Nc1cccc(Cl)c1)c1ccncc12 [silmitasertib]
Outline: as §1

[5] = compound: O=C1NC(=O)C(c2cnc3ccccn23)=C1c1cn2c3c(cc(F)cc13)CN(C(=O)N1CCCCC1)CC2
Outline: as §1

[6] = compound: c1cc(OCCN2CCCCC2)cc(-c2n[nH]c3ccc(-c4nnc[nH]4)cc23)c1
Outline: as §1

Target	log2 fold change [1]	log2 fold change [2]	log2 fold change [3]	log2 fold change [4]	log2 fold change (entinostat)	log2 fold change (vorinostat)	log2 fold change (citarinostat)	log2 fold change (silmitasertib)	log2 fold change [5]	log2 fold change [6]
RRM2 isoform 2 (UniProt P31350)	inactive: 0.027	inactive: 0.055	inactive: -0.046	inactive: 0.056	inactive: -0.01	inactive: 0.009	inactive: 0.019	inactive: -0.001	inactive: -0.006	inactive: -0.033
RPL29 (UniProt P47914)	inactive: 0.239	inactive: 0.205	inactive: 0.508	inactive: 0.43	inactive: -0.141	inactive: -0.026	inactive: -0.176	inactive: 0.162	inactive: 0.487	inactive: -0.33
RPS3 (UniProt P23396)	inactive: -0.006	inactive: 0.05	inactive: 0.117	inactive: 0.033	inactive: -0.055	inactive: 0.015	inactive: -0.035	inactive: -0.008	inactive: 0.029	inactive: -0.145
RPL23 (UniProt P62829)	inactive: 0.042	inactive: 0.111	inactive: 0.222	inactive: 0.094	inactive: -0.008	inactive: 0.004	inactive: -0.105	inactive: 0.042	inactive: 0.107	inactive: -0.201
RRAS (UniProt P10301)	inactive: -0.024	inactive: 0.011	inactive: 0.008	inactive: -0.024	inactive: -0.088	inactive: -0.001	inactive: -0.002	inactive: 0.043	inactive: -0.002	inactive: -0.008
RPLP1 (UniProt P05386)	inactive: 0.086	inactive: 0.286	inactive: 0.443	inactive: 0.179	inactive: -0.128	inactive: -0.104	inactive: -0.23	inactive: 0.229	inactive: 0.094	inactive: -0.531
RPP25L (UniProt Q8N5L8)	inactive: 0.003	inactive: -0.052	inactive: -0.012	inactive: -0.032	inactive: -0.001	inactive: -0.014	inactive: -0.08	inactive: 0.073	inactive: 0.183	inactive: -0.075
RPL30 (UniProt P62888)	inactive: 0.077	inactive: 0.175	inactive: 0.502	inactive: 0.294	inactive: -0.145	inactive: -0.035	inactive: -0.209	inactive: 0.166	inactive: 0.292	inactive: -0.33
RPS26 (UniProt P62854)	inactive: 0.182	inactive: 0.004	inactive: 0.311	inactive: 0.121	inactive: -0.053	inactive: 0	inactive: -0.084	inactive: 0.151	inactive: 0.247	inactive: -0.312
RPIA (UniProt P49247)	inactive: -0.02	inactive: 0	inactive: -0.047	inactive: -0.009	inactive: -0.009	inactive: -0.063	inactive: 0.003	inactive: -0.028	inactive: -0.02	inactive: 0.009
RNMT isoform 2 (UniProt O43148)	inactive: 0.01	inactive: -0.034	inactive: 0.095	inactive: -0.092	inactive: -0.05	inactive: 0.006	inactive: -0.021	inactive: 0.023	inactive: 0.038	inactive: -0.075
RPS18 (UniProt P62269)	inactive: -0.032	inactive: 0.08	inactive: 0.122	inactive: 0.049	inactive: -0.083	inactive: 0.023	inactive: -0.093	inactive: 0	inactive: 0.069	inactive: -0.145
RPUSD2 (UniProt Q8IZ73)	inactive: 0.003	inactive: -0.006	inactive: 0.026	inactive: 0.01	inactive: -0.004	inactive: 0.012	inactive: 0.011	inactive: -0.055	inactive: -0.027	inactive: -0.025
RPL27 (UniProt P61353)	inactive: 0.078	inactive: 0.298	inactive: 0.436	inactive: 0.395	inactive: -0.138	inactive: -0.012	inactive: -0.172	inactive: 0.178	inactive: 0.244	inactive: -0.273
RPL36AL (UniProt Q969Q0)	inactive: 0.107	inactive: 0.223	inactive: 0.348	inactive: 0.195	inactive: -0.048	inactive: -0.037	inactive: -0.112	inactive: 0.123	inactive: 0.324	inactive: 0.035
ROCK2 (UniProt O75116)	inactive: 0.043	inactive: -0.044	inactive: -0.106	inactive: -0.017	inactive: 0.031	inactive: 0.08	inactive: 0.013	inactive: 0.096	inactive: 0.017	inactive: 0.06
RPS8 (UniProt P62241)	inactive: 0.099	inactive: 0.117	inactive: 0.33	inactive: 0.156	inactive: -0.052	inactive: 0.005	inactive: -0.133	inactive: 0.074	inactive: 0.115	inactive: -0.227
RPAP3 (UniProt Q9H6T3)	inactive: -0.117	inactive: -0.079	inactive: -0.084	inactive: -0.105	inactive: 0.033	inactive: 0.064	inactive: 0.019	inactive: 0.016	inactive: 0.017	inactive: -0.049
RPL31 (UniProt P62899)	inactive: 0.042	inactive: 0.099	inactive: 0.26	inactive: 0.075	inactive: -0.079	inactive: -0.012	inactive: -0.09	inactive: 0.048	inactive: 0.104	inactive: -0.12
RPS4X (UniProt P62701)	inactive: 0.088	inactive: 0.095	inactive: 0.216	inactive: 0.088	inactive: -0.048	inactive: 0.005	inactive: -0.104	inactive: 0.014	inactive: 0.126	inactive: -0.204
RPS6KA3 (UniProt P51812)	inactive: -0.076	inactive: -0.177	inactive: -0.203	inactive: -0.029	inactive: 0.044	inactive: 0.048	inactive: 0.079	inactive: -0.038	inactive: -0.046	inactive: -0.241
RPAP1 (UniProt Q9BWH6)	inactive: 0.027	inactive: -0.019	inactive: -0.068	inactive: -0.05	inactive: 0.006	inactive: 0.019	inactive: 0.045	inactive: 0.04	inactive: 0.03	inactive: -0.021
RPL5 (UniProt P46777)	inactive: 0.045	inactive: 0.056	inactive: 0.322	inactive: 0.141	inactive: -0.08	inactive: 0.028	inactive: -0.113	inactive: 0.097	inactive: 0.122	inactive: -0.179
RPS13 (UniProt P62277)	inactive: 0.058	inactive: 0.093	inactive: 0.246	inactive: 0.115	inactive: -0.062	inactive: 0.019	inactive: -0.121	inactive: -0.022	inactive: 0.091	inactive: -0.182
RPS10 (UniProt P46783)	inactive: 0.047	inactive: 0.087	inactive: 0.161	inactive: 0.052	inactive: -0.077	inactive: -0.004	inactive: -0.033	inactive: -0.019	inactive: 0.072	inactive: -0.09
RPS25 (UniProt P62851)	inactive: -0.043	inactive: 0.071	inactive: 0.192	inactive: 0.053	inactive: -0.072	inactive: 0.032	inactive: -0.066	inactive: -0.061	inactive: 0.107	inactive: -0.052
RPS5 (UniProt P46782)	inactive: 0.035	inactive: 0.105	inactive: 0.153	inactive: 0.133	inactive: -0.043	inactive: 0	inactive: -0.052	inactive: -0.07	inactive: 0.094	inactive: -0.12
RPS15 (UniProt P62841)	inactive: 0.005	inactive: -0.13	inactive: 0.135	inactive: 0	inactive: -0.068	inactive: 0	inactive: -0.034	inactive: 0.02	inactive: 0.036	inactive: -0.144
RPL36 (UniProt Q9Y3U8)	inactive: 0.245	inactive: 0.194	inactive: 0.437	inactive: 0.365	inactive: -0.104	inactive: -0.023	inactive: -0.163	inactive: 0.183	inactive: 0.367	inactive: -0.306
RRAGC (UniProt Q9HB90)	inactive: -0.001	inactive: -0.091	active: -0.265	inactive: -0.069	inactive: -0.004	inactive: -0.015	inactive: 0.041	inactive: 0.014	inactive: 0.011	inactive: -0.027

Record cards, as listed above. Values in the order: log2 fold change [1]	log2 fold change [2]	log2 fold change [3]	log2 fold change [4]	log2 fold change (entinostat)	log2 fold change (vorinostat)	log2 fold change (citarinostat)	log2 fold change (silmitasertib)	log2 fold change [5]	log2 fold change [6]
RPAP3 (UniProt Q9H6T3) as listed: inactive: -0.117	inactive: -0.079	inactive: -0.084	inactive: -0.105	inactive: 0.033	inactive: 0.064	inactive: 0.019	inactive: 0.016	inactive: 0.017	inactive: -0.049
RPS26 (UniProt P62854) as listed: inactive: 0.182	inactive: 0.004	inactive: 0.311	inactive: 0.121	inactive: -0.053	inactive: 0	inactive: -0.084	inactive: 0.151	inactive: 0.247	inactive: -0.312
